Source: article PMC3062566

Assays:
Assay in all cases: affinity purification with mass spectrometry
[1] = target: 3xFLAG-PepDS317A-6xHis (M. tuberculosis PepD S317A, expressed in M. tuberculosis ΔpepD from pTZ1066) (Mycobacterium tuberculosis) (UniProt O53896)
[2] = target: 3xFLAG-PepDS317A-6xHis (M. tuberculosis PepD S317A, expressed in M. smegmatis ΔpepD from pTZ1066) (Mycobacterium tuberculosis) (UniProt O53896)
[3] = target: 3xFLAG-PepDS317A-6xHis (M. tuberculosis PepD S317A, expressed in M. tuberculosis ΔpepD from pTZ1066) (Mycobacterium tuberculosis) (UniProt O53896); remark: listed apart in the source

Molecule	binding [1]	other results
Chaperone protein DnaK (Rv0350) (from UniProt P9WMJ9 1-625)	binds	–
ATP synthase subunit beta AtpD (Rv1310) (from UniProt P9WPU5 1-486)	binds	–
MSMEG_2695 (35-kDa antigen of M. smegmatis) (protein, UniProt A0QVU2 1-279) MANPFVKAWKYLMALFSSKVDEYADPKVQIQQAIEDAQRQHQALTQQAAQVIGNQRQLEMRLNRQLADIEKLQVNVRQALTLADQATAAGDVAKATEYNNAAEAFAAQLVTAEQSVEDLKGLHDQALQAAGQAKKAVEQNAMMLQQKIAERTKLLSQLEQAKMQEQVSSSLRSMSELAAPGTTPSLDEVRQKIERRYANAMGEAELAQNSVQGRMMEIQQASVQMAGHSRLEQIRASMRGEALPSGGATSTPATPSTQGTPSDPATNQTPPNTENPLGQ	–	binding [2]: binds
Serine/threonine protein kinase PknH (Rv1266c) (protein, UniProt P9WI71 1-626) MSDAQDSRVGSMFGPYHLKRLLGRGGMGEVYEAEHTVKEWTVAVKLMTAEFSKDPVFRERMKREARIAGRLQEPHVVPIHDYGEVDGQMFLEMRLVEGTDLDSVLKRFGPLTPPRAVAIITQIASALDAAHADGVMHRDVKPQNILITRDDFAYLVDFGIASATTDEKLTQLGTAVGTWKYMAPERFSNDEVTYRADIYALACVLHECLTGAPPYRADSAGTLVSSHLMGPIPQPSAIRPGIPKAFDAVVARGMAKKPEDRYASAGDLALAAHEALSDPDQDHAADILRRSQESTLPAPPKPVPPPTMPATAMAPRQPPAPPVTPPGVQPAPKPSYTPPAQPGPAGQRPGPTGQPSWAPNSGPMPASGPTPTPQYYQGGGWGAPPSGGPSPWAQTPRKTNPWPLVAGAAAVVLVLVLGAIGIWIAIRPKPVQPPQPVAEERLSALLLNSSEVNAVMGSSSMQPGKPITSMDSSPVTVSLPDCQGALYTSQDPVYAGTGYTAINGLISSEPGDNYEHWVNQAVVAFPTADKARAFVQTSADKWKNCAGKTVTVTNKAKTYRWTFADVKGSPPTITVIDTQEGAEGWECQRAMSVANNVVVDVNACGYRITNQAGQIAAKIVDKVNKE	–	binding [3]: binds

Where two headings read alike, the source gives them in different places. No constants are given. Whether binding was seen depends on the method and setting. In cells and extracts the contact can be indirect. These calls come from enrichment with a bait or labelling near it, and not all partners need be listed.
